Our source for the Log2FoldChange values is article PMC10443802 (JCI Insight, 2023).

The subject of the data set is OATP1B2. In words: Untargeted metabolomics of plasma and DRG, WT vs OATP1B2-deficient mice. It counts as in vivo, mouse.
The mark [1] stands for this setting: untargeted metabolomics, sheet "Figure 5C", WT vs OATP1B2-deficient mice.
Where [2] appears, read: untargeted metabolomics, WT vs OATP1B2-deficient mice, supplement sheet "Figure 5B".
The mark [3] stands for this setting: untargeted metabolomics, WT vs OATP1B2-deficient mice, supplement sheet "Figure 5B" (volcano plot).
Setting [4] is: Figure 5B source data (volcano plot), untargeted metabolomics, WT vs OATP1B2-deficient mice, log2 fold change of metabolite level.

“And” between values parts separate entries of the source, which are not always exact repeats. Identical values can stand only once. Counter-ions that a name gives are not always drawn. Where a SMILES comes first, the peptide text is derived from it. [ ]: non-standard residue; d: D form. ξ: configuration not given here. ξV = CC(C)C(N)C(=O)O

In the case of `N[C@@H](CCC(=O)N[C@@H](CS)C(=O)O)C(=O)O` [gamma-glutamylcysteine], the Log2FoldChange under setting [1] is on record as 0.275.

In turn, `NC(=O)CC[C@H](NC(=O)CC[C@H](N)C(=O)O)C(=O)O` [gamma-glutamylglutamine] gave a Log2FoldChange under setting [1] of 0.08406. Take `N[C@@H](CCC(=O)N[C@@H](Cc1c[nH]cn1)C(=O)O)C(=O)O` [gamma-glutamylhistidine]: the Log2FoldChange under setting [2] is on record as -0.1047.

`CC[C@H](C)[C@H](NC(=O)CC[C@H](N)C(=O)O)C(=O)O` [gamma-glutamylisoleucine*] had a Log2FoldChange under setting [2] of 0. Turning to `CC(C)C[C@H](NC(=O)CC[C@H](N)C(=O)O)C(=O)O` [gamma-glutamylleucine], the Log2FoldChange is, setting by setting: under setting [2], 0.02857; under setting [1], 0.251.

In turn, `N[C@@H](CCC(=O)N[C@@H](Cc1ccccc1)C(=O)O)C(=O)O` [gamma-glutamylphenylalanine] gave a Log2FoldChange under setting [2] of 0.1763 and a Log2FoldChange under setting [1] of 0.09761.

Consider `C[C@@H](O)[C@H](NC(=O)CC[C@H](N)C(=O)O)C(=O)O` [gamma-glutamylthreonine], for which the Log2FoldChange is 0.111 under setting [2] and -0.1844 under setting [1]. As for `N[C@@H](CCC(=O)N[C@@H](Cc1c[nH]c2ccccc12)C(=O)O)C(=O)O` [gamma-glutamyltryptophan], the Log2FoldChange under setting [3] turned out to be 0.2388 and the Log2FoldChange under setting [1] was 0.251.

With `N[C@@H](CCC(=O)N[C@@H](Cc1ccc(O)cc1)C(=O)O)C(=O)O` [gamma-glutamyltyrosine], the Log2FoldChange by setting is: under setting [3], 0.275; under setting [1], 0.3674. As to `CC(C)[C@H](NC(=O)CC[C@H](N)C(=O)O)C(=O)O` [gamma-glutamylvaline], under setting [2], the Log2FoldChange is given as 0.05658.

In the case of `O=c1c(-c2ccc(O)cc2)coc2cc(O)cc(O)c12` [genistein], the Log2FoldChange under setting [4] is reported as -1.184.

In turn, `OC[C@H]1OC(O)[C@H](O)[C@@H](O)[C@@H]1O` (stereo partly drawn) [glucose] had a Log2FoldChange under setting [2] of 0.09761.

For the setting “mouse, in vivo”, `COC(=O)CCC(N)C(=O)O` (stereo not drawn) [glutamate, gamma-methyl ester] yielded a Log2FoldChange of 0.2016.

For `NC(=O)CC[C@H](N)C(=O)O` [glutamine], the Log2FoldChange runs as follows: under setting [2], 0.111; under setting [1], 0.09761.

Turning to `O=C(O)CCCC(=O)O` [glutarate (C5-DC)], the Log2FoldChange is reported as 0.251 under setting [3] and -0.074 under setting [1]. Regarding `N[C@@H](CCC(=O)N[C@@H](CS)C(=O)NCC(=O)O)C(=O)O` [glutathione, reduced (GSH)], the Log2FoldChange under setting [1] is reported as 0.3334.

`O=C(O)C(O)CO` (stereo not drawn) [glycerate]: the Log2FoldChange under setting [2] is listed as 0.02857 and the Log2FoldChange under setting [1] is 0.02857. With `O=P(O)(O)OCC(O)CO` (stereo not drawn) [glycerol 3-phosphate], the Log2FoldChange is, setting by setting: under setting [2], 0.1375; under setting [1], 0.2388. For the molecule `NCCOP(=O)(O)OCC(O)CO` (stereo not drawn) [glycerophosphoethanolamine], the Log2FoldChange is, setting by setting: under setting [3], 0.6508; under setting [1], 0.1763. As to `O=P(O)(OCC(O)CO)OCC(O)CO` (stereo not drawn) [glycerophosphoglycerol], under setting [3], the Log2FoldChange was 0.2869.

`O=P(O)(OC[C@H](O)CO)OC1[C@H](O)[C@H](O)C(O)[C@H](O)[C@H]1O` (stereo partly drawn) [glycerophosphoinositol*] registered a Log2FoldChange under setting [1] of 0.189.

`C[N+](C)(C)CCOP(=O)([O-])OC[C@H](O)CO` [glycerophosphorylcholine (GPC)]: the Log2FoldChange was found to be 0.4222 under setting [3] and 0.2016 under setting [1]. `C[C@H](CCC(=O)NCC(=O)O)[C@H]1CC[C@H]2[C@@H]3[C@H](O)C[C@@H]4C[C@H](O)CC[C@]4(C)[C@H]3C[C@H](O)[C@]12C` [glycocholate] registered a Log2FoldChange under setting [3] of 0.3103. As for `CC[C@H](C)[C@H](NC(=O)CN)C(=O)O` [glycylisoleucine] (H-Gly-Ile-OH), the Log2FoldChange under setting [1] was 0.263. `CC(C)C[C@H](NC(=O)CN)C(=O)O` [glycylleucine] displayed a Log2FoldChange under setting [1] of 0.2265. In the case of `CC(C)[C@H](NC(=O)CN)C(=O)O` [glycylvaline] (H-Gly-[ξV]-OH), the Log2FoldChange under setting [1] was 0.4957.

Take `COc1ccccc1OS(=O)(=O)O` [guaiacol sulfate]: the Log2FoldChange under setting [2] came to 0.111.

The molecule `[H]/N=C(/N)NCC(=O)O` [guanidinoacetate] yielded a Log2FoldChange under setting [1] of 0.2016. Consider `N=C(N)NC(CC(=O)O)C(=O)O` (stereo not drawn) [guanidinosuccinate], for which, under setting [3], the Log2FoldChange is reported as 0.585. With `Nc1nc2nc[nH]c2c(=O)[nH]1` [guanine], the Log2FoldChange under setting [1] was 0.02857. `Nc1nc2c(ncn2[C@@H]2O[C@H](CO)[C@@H](O)[C@H]2OP(=O)(O)O)c(=O)[nH]1` [guanosine 2'-monophosphate (2'-GMP)*] had a Log2FoldChange under setting [1] of 0.251. The same measure, in the same setting: for `Nc1nc2c(ncn2[C@@H]2O[C@H](CO)[C@@H](OP(=O)(O)O)[C@H]2O)c(=O)[nH]1` [guanosine 3'-monophosphate (3'-GMP)] the value was 0.111; for `Nc1nc2c(ncn2[C@@H]2O[C@H](COP(=O)(O)O)[C@@H](O)[C@H]2O)c(=O)[nH]1` [guanosine 5'-monophosphate (5'-GMP)], 0. In the case of `Nc1nc2c(ncn2[C@@H]2O[C@H](CO)[C@@H](O)[C@H]2O)c(=O)[nH]1` [guanosine], the Log2FoldChange turned out to be 1.599 under setting [3] and 0.05658 under setting [1]. Molecule `O=C(O)[C@@H](O)[C@@H](O)[C@H](O)[C@@H](O)CO` [gulonate*] displayed a Log2FoldChange under setting [2] of 0.2016. In the case of `C=CC1=C(C)c2cc3[n-]c(cc4[n-]c(cc5nc(cc1n2)C(C)=C5C=C)c(C)c4CCC(=O)O)c(CCC(=O)O)c3C.[Fe+2]` [heme], under setting [4], the Log2FoldChange is on record as -0.3401. Still for that read-out and setting: to `CCC=CCC=CCC=CCC=CCC=CCCCCC(=O)O` [heneicosapentaenoate (21:5n3)] belongs -0.8365. As to `O=C(O)CCCCCCCCCCCCCCCC(=O)O` [heptadecanedioate (C17-DC)], under setting [3], the Log2FoldChange was found to be 0.7312.

`CCCCCCC(=O)O` [heptanoate (7:0)]: the Log2FoldChange was 0.4114 under setting [3] and -0.2009 under setting [1].

Regarding `CCCCCCC(=O)NCC(=O)O` [heptanoyl glycine], the Log2FoldChange under setting [3] was determined as 0.6041. In the case of `CCCCC/C=C/C/C=C/CCCCCC(=O)O` [hexadecadienoate (16:2n6)], under setting [2], the Log2FoldChange is recorded as -0.1361. With `O=C(O)CCCCCCCCCCCCCCC(=O)O` [hexadecanedioate (C16-DC)], the Log2FoldChange under setting [3] came to 1.07. For `CCC=CCC=CCC=CCCCCCC(=O)O` [hexadecatrienoate (16:3n3)], the Log2FoldChange was 0.02857 under setting [2] and 0.3334 under setting [1]. Consider `CCCCCC(=O)OC(CC(=O)[O-])C[N+](C)(C)C` (stereo not drawn) [hexanoylcarnitine (C6)], for which the Log2FoldChange is, setting by setting: under setting [3], 0.7049; under setting [1], 0.3448. Turning to `CCCCCC(=O)NCC(=O)O` [hexanoylglycine], under setting [3], the Log2FoldChange turned out to be 0.669. On to `CCCCCC(=O)NCCS(=O)(=O)O` [hexanoyltaurine], for which, under setting [3], the Log2FoldChange was found to be 0.4854.

As to `NCCc1c[nH]cn1` [histamine], the Log2FoldChange under setting [1] came to 0.3219. `C[N+](C)(C)[C@@H](Cc1cnc[nH]1)C(=O)[O-]` [histidine betaine (hercynine)*]: under setting [3], the Log2FoldChange is recorded as 0.3896. In the case of `COC(=O)[C@@H](N)Cc1cnc[nH]1` [histidine methyl ester], the Log2FoldChange under setting [1] came out at 0.7655. Consider `N[C@@H](Cc1c[nH]cn1)C(=O)O` [histidine], for which the Log2FoldChange under setting [2] is listed as -0.08927. `C[C@H](NC(=O)[C@@H](N)Cc1cnc[nH]1)C(=O)O` [histidylalanine] (H-His-Ala-OH) had a Log2FoldChange under setting [1] of 0.1763. On the same count and under the same terms, to `NCCCC(=O)N[C@@H](Cc1cnc[nH]1)C(=O)O` [homocarnosine] belongs 0.3334. The molecule `NC(=O)NCCCC[C@H](N)C(=O)O` [homocitrulline] returned a Log2FoldChange under setting [2] of 0.189.

Consider `N[C@@H](CCO)C(=O)O` [homoserine], for which the Log2FoldChange under setting [4] is on record as -0.5564. With `C[N+]1(C)CCCC[C@H]1C(=O)[O-]` [homostachydrine*], the Log2FoldChange under setting [3] is recorded as 0.251. Under setting [2], `COc1cc(CC(=O)O)ccc1OS(=O)(=O)O` [homovanillate sulfate] registered a Log2FoldChange of 0.08406. As to `C[C@H](CCC(=O)O)[C@H]1CC[C@H]2[C@@H]3[C@H](O)[C@H](O)[C@@H]4C[C@H](O)CC[C@]4(C)[C@H]3CC[C@]12C` [hyocholate], the Log2FoldChange under setting [3] is given as 2.4957. `C[C@H](CCC(=O)O)[C@H]1CC[C@H]2[C@@H]3C[C@H](O)[C@@H]4C[C@H](O)CC[C@]4(C)[C@H]3CC[C@]12C` [hyodeoxycholate] yielded a Log2FoldChange under setting [3] of 3.874.

In the case of `NCCS(=O)O` [hypotaurine], where the note is “mouse, in vivo”, the Log2FoldChange was 0.3561 and 0.08406. With `O=c1[nH]cnc2nc[nH]c12` [hypoxanthine], the Log2FoldChange is listed as 0.6508 under setting [3] and 0.08406 under setting [1]. Regarding `O=C(O)[C@@H](O)Cc1cnc[nH]1` [imidazole lactate], the Log2FoldChange was 0.4957 under setting [3] and 0.1375 under setting [1]. As to `O=C(O)CCc1cnc[nH]1` [imidazole propionate], the Log2FoldChange reads like this: under setting [4], -1.737; under setting [1], -0.415.

In the case of `O=C(O)c1c[nH]c2ccccc12` [indole-3-carboxylate], the Log2FoldChange under setting [4] is reported as -0.1844. Under setting [2], `CC(=O)Oc1c[nH]c2ccccc12` [indoleacetate] registered a Log2FoldChange of 0.111. On to `O=C(O)C(O)Cc1c[nH]c2ccccc12` (stereo not drawn) [indolelactate], for which, under setting [1], the Log2FoldChange is listed as -0.5146. As for `O=C(O)CCc1c[nH]c2ccccc12` [indolepropionate], under setting [3], the Log2FoldChange is reported as 0.263. Under setting [3], `O=C(O)CNC(=O)CCc1c[nH]c2ccccc12` [indolepropionylglycine] yielded a Log2FoldChange of 0.4647. Same read-out and setting: to `O=C1Cc2ccccc2N1` [indolin-2-one] belongs 0.5945. `O=c1[nH]cnc2c1ncn2[C@@H]1O[C@H](CO)[C@@H](O)[C@H]1O` [inosine] gave a Log2FoldChange under setting [3] of 1.05.
